The experiment relates to CD2F1 mice, L1210 leukemia ip, survival T/C. The experiment in a line: NCI In Vivo Anticancer Drug Screen. Data for tumor model L1210 Leukemia (intraperitoneal) in CD2F1 (CDF1) mice. As to conditions: higher T/C = longer survival. An outline of the steps:
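Antitumor effect is scored in animals hosting a serially transplanted tumor. Values compare compound-dosed animals against vehicle-only controls as a simple quotient.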

[1] abbreviates: T/C endpoint: mean survival time, dose: 75.0 mg/kg/injection, schedule: Q01DX009 (ip), vehicle: Klucel (hydroxypropylcellulose) (HPC).
[2] abbreviates: T/C endpoint: mean survival time, dose: 400.0 mg/kg/injection, schedule: Q04DX003 (ip), vehicle: saline with Tween-80.
Where [3] appears, read: T/C endpoint: mean survival time, dose: 200.0 mg/kg/injection, schedule: Q04DX003 (ip), vehicle: saline with Tween-80.
Where [4] appears, read: T/C endpoint: mean survival time, dose: 400.0 mg/kg/injection, schedule: Q01DX009 (ip), vehicle: saline with Tween-80.
Where [5] appears, read: T/C endpoint: mean survival time, dose: 300.0 mg/kg/injection, schedule: Q01DX001 (ip), vehicle: saline.

The list is a part of this screen's results and no random one: it gathers tests that were run many times, whatever their T/C, doses with no T/C, and many T/C values between a quarter and a half above the control. Further doses and runs are listed elsewhere. T/C is the treated group as % of the vehicle group. Some doses have a count of surviving animals in place of a T/C: the source files T/C as zero there, which appears to mark a toxic dose or a test without result, not a measured value. Some survivor counts are full or nearly so, which does not show that the dose was tolerated: the source hardly ever lists a survival T/C far under the control, and the zero likely stands for such cases as well. Counts of survivors are from the toxicity check (mostly the fifth day) where no day follows; animals may have died later. Schedule codes are those of the source, taken here to give the interval after Q, in days (D) or hours (H), and the number of doses after X. For survival time, the PubChem record calls one and a half times the control and up active, and a quarter to a half above the control has no call in these data; cut-offs in other NCI protocols can differ. Some entries hold several experiments; the results are listed from low to high. Some T/C values are followed by the survivors on the day toxicity was checked, most often the fifth; where none is given, no animal had died by that day.

Regarding `Nc1nc(-c2cccc([N+](=O)[O-])c2)c(N=Nc2ccccc2Cl)s1`, under “T/C endpoint: mean survival time, dose: 200.0 mg/kg/injection, schedule: Q01DX001 (ip), vehicle: saline with Tween-80”, the survivor count is 6 of 6.

In the case of `CSC#N`, the survivor count (T/C endpoint: mean survival time, dose: 20.0 mg/kg/injection, schedule: Q01DX009 (ip), vehicle: Klucel (hydroxypropylcellulose) (HPC)) was 1 of 3.

For the molecule `CCN(C)N=Nc1ccc(NC(N)=O)cc1`, the T/C runs as follows: (T/C endpoint: mean survival time, dose: 18.75 mg/kg/injection, schedule: Q01DX009 (ip), vehicle: Klucel (hydroxypropylcellulose) (HPC)) 133 % of control; (T/C endpoint: mean survival time, dose: 37.5 mg/kg/injection, schedule: Q01DX009 (ip), vehicle: Klucel (hydroxypropylcellulose) (HPC)) 146 % of control; under setting [1], 130 % of control. In addition, the survivor count reads like this: under setting [1], 5 of 6; (T/C endpoint: mean survival time, dose: 150.0 mg/kg/injection, schedule: Q01DX009 (ip), vehicle: Klucel (hydroxypropylcellulose) (HPC)) 0 of 6; (T/C endpoint: mean survival time, dose: 300.0 mg/kg/injection, schedule: Q01DX009 (ip), vehicle: Klucel (hydroxypropylcellulose) (HPC)) 0 of 6.

Take `C1CN(SSN2CCOCC2)CCO1`: the survivor count runs as follows: (T/C endpoint: mean survival time, dose: 100.0 mg/kg/injection, schedule: Q04DX003 (ip), vehicle: Klucel (hydroxypropylcellulose) (HPC)) 3 of 3; (T/C endpoint: mean survival time, dose: 200.0 mg/kg/injection, schedule: Q04DX003 (ip), vehicle: Klucel (hydroxypropylcellulose) (HPC)) 1 of 3; (T/C endpoint: mean survival time, dose: 400.0 mg/kg/injection, schedule: Q04DX003 (ip), vehicle: Klucel (hydroxypropylcellulose) (HPC)) 0 of 3; under setting [2], 0 of 3.

For `OCCNCc1ccc(Cl)cc1`, the survivor count under setting [2] was 4 of 6.

For the molecule `O=C1CC2OCCC3=CN4CCC56c7ccccc7N1C5C2C3CC46` (stereo not drawn), where the note is “T/C endpoint: mean survival time, dose: 5.0 mg/kg/injection, schedule: Q01DX001 (ip), vehicle: other”, the survivor count is 0 of 6.

In the case of `COc1ccc(CCN)cc1OC`, the survivor count under setting [2] is reported as 0 of 6.

Consider `Cc1c2cc[n+](CCN3CCCCC3)cc2c(C)c2c1[nH]c1ccc(O)cc12`, for which the T/C reads like this: (T/C endpoint: mean survival time, dose: 1.56 mg/kg/injection, schedule: Q01DX009 (ip), vehicle: saline) 136 % of control [5 of 6 alive]; (T/C endpoint: mean survival time, dose: 3.12 mg/kg/injection, schedule: Q01DX009 (ip), vehicle: saline) 143 % of control; (T/C endpoint: mean survival time, dose: 3.12 mg/kg/injection, schedule: Q01DX009 (ip), vehicle: suspension in saline) 132 % of control; (T/C endpoint: mean survival time, dose: 6.25 mg/kg/injection, schedule: Q01DX009 (ip), vehicle: saline) 141 % of control; (T/C endpoint: mean survival time, dose: 6.25 mg/kg/injection, schedule: Q01DX009 (ip), vehicle: suspension in saline) 137 % of control; (T/C endpoint: mean survival time, dose: 25.0 mg/kg/injection, schedule: Q01DX009 (ip), vehicle: saline) 129 % of control. Besides, under “T/C endpoint: mean survival time, dose: 25.0 mg/kg/injection, schedule: Q01DX009 (ip), vehicle: suspension in saline”, the T/C was 126 % of control.

Consider `CCCCc1ccc(O)c(CN2CCCCC2)c1`, for which the survivor count is on record as 2 of 6 under setting [3] and 0 of 6 under setting [2].

On to `c1ccc2[nH]c(CCCCCCCCc3nc4ccccc4[nH]3)nc2c1`, for which, under setting [4], the survivor count is reported as 2 of 6.

With `COC(=O)C1C2CCC(C2)C1C` (stereo not drawn), the survivor count is reported as 6 of 6 under setting [3] and 2 of 6 under setting [2].

In the case of `Cc1cccc2c1CCC(OC(=O)c1cc([N+](=O)[O-])cc([N+](=O)[O-])c1)C2` (stereo not drawn), the survivor count by setting is: (T/C endpoint: mean survival time, dose: 100.0 mg/kg/injection, schedule: Q04DX003 (ip), vehicle: saline with Tween-80) 6 of 6; (T/C endpoint: mean survival time, dose: 200.0 mg/kg/injection, schedule: Q01DX009 (ip), vehicle: saline with Tween-80) 6 of 6; under setting [2], 6 of 6.

On to `C/C(Cl)=C/C(=O)O.[Ag]`, for which the survivor count runs as follows: (T/C endpoint: mean survival time, dose: 150.0 mg/kg/injection, schedule: Q01DX001 (ip), vehicle: saline) 0 of 6; under setting [5], 0 of 6.

On to `CCN(CC)C(=O)CSC#N`, for which the survivor count (T/C endpoint: mean survival time, dose: 50.0 mg/kg/injection, schedule: Q01DX001 (ip), vehicle: Klucel (hydroxypropylcellulose) (HPC)) is given as 0 of 3; the survivor count (T/C endpoint: mean survival time, dose: 100.0 mg/kg/injection, schedule: Q01DX001 (ip), vehicle: Klucel (hydroxypropylcellulose) (HPC)) is 0 of 3; the survivor count (T/C endpoint: mean survival time, dose: 100.0 mg/kg/injection, schedule: Q04DX002 (ip), vehicle: other) was 0 of 3; the survivor count (T/C endpoint: mean survival time, dose: 200.0 mg/kg/injection, schedule: Q01DX001 (ip), vehicle: Klucel (hydroxypropylcellulose) (HPC)) is recorded as 0 of 3; the survivor count (T/C endpoint: mean survival time, dose: 200.0 mg/kg/injection, schedule: Q04DX002 (ip), vehicle: other) is reported as 0 of 3; the survivor count (T/C endpoint: mean survival time, dose: 400.0 mg/kg/injection, schedule: Q01DX001 (ip), vehicle: Klucel (hydroxypropylcellulose) (HPC)) was 0 of 3. For the same molecule, the survivor count (T/C endpoint: mean survival time, dose: 400.0 mg/kg/injection, schedule: Q04DX002 (ip), vehicle: other) was 0 of 3.

Take `OCC1=CCN(CCc2c[nH]c3ccccc23)CC1`: the survivor count under setting [4] is reported as 3 of 6.

Take `COc1ccc(NC(=O)Nc2cccc(Cl)c2)c(OC)c1`: the survivor count (T/C endpoint: mean survival time, dose: 400.0 mg/kg/injection, schedule: Q04DX002 (ip), vehicle: saline with Tween-80) was 3 of 3.

Consider `CC1(C(=O)O)CCCC2(C)c3cc(O)ccc3CCC12` (stereo not drawn), for which the survivor count (T/C endpoint: mean survival time, dose: 200.0 mg/kg/injection, schedule: Q01DX009 (ip), vehicle: Klucel (hydroxypropylcellulose) (HPC)) was 1 of 3.

As for `C#CCNC1=C(C)C(=O)C2=C(C1=O)[C@H](COC(N)=O)[C@]1(OC)[C@@H]3N[C@@H]3CN21`, the T/C by setting is: (T/C endpoint: mean survival time, dose: 6.0 mg/kg/injection, schedule: Q01DX001 (ip), vehicle: distilled water + Tween-80) 130 % of control; (T/C endpoint: mean survival time, dose: 12.0 mg/kg/injection, schedule: Q01DX001 (ip), vehicle: distilled water + Tween-80) 130 and 146 % of control; (T/C endpoint: mean survival time, dose: 24.0 mg/kg/injection, schedule: Q01DX001 (ip), vehicle: distilled water + Tween-80) 147 % of control; (T/C endpoint: median survival time, dose: 1.5 mg/kg/injection, schedule: Q01DX009 (ip), vehicle: distilled water + Tween-80) 139 % of control; (T/C endpoint: median survival time, dose: 3.0 mg/kg/injection, schedule: Q01DX009 (ip), vehicle: distilled water + Tween-80) 139 % of control; (T/C endpoint: median survival time, dose: 12.0 mg/kg/injection, schedule: Q01DX009 (ip), vehicle: distilled water + Tween-80) 129 % of control. In addition, the survivor count (T/C endpoint: median survival time, dose: 24.0 mg/kg/injection, schedule: Q01DX009 (ip), vehicle: distilled water + Tween-80) is 6 of 6; the survivor count (T/C endpoint: median survival time, dose: 50.0 mg/kg/injection, schedule: Q01DX009 (ip), vehicle: distilled water + Tween-80) is 0 of 6; the survivor count (T/C endpoint: median survival time, dose: 100.0 mg/kg/injection, schedule: Q01DX009 (ip), vehicle: distilled water + Tween-80) was 0 of 6.

For `CCN(CC)CCCC(C)Nc1ccnc2cc(Cl)ccc12` (stereo not drawn), the survivor count by setting is: (T/C endpoint: mean survival time, dose: 200.0 mg/kg/injection, schedule: Q04DX002 (ip), vehicle: saline) 0 of 3; (T/C endpoint: mean survival time, dose: 400.0 mg/kg/injection, schedule: Q04DX002 (ip), vehicle: saline) 0 of 3.

For the molecule `CC(C)N1CC(COc2cccc3ccccc23)OP1(=O)N(CCCl)CCCl` (stereo not drawn), the T/C (T/C endpoint: mean survival time, dose: 500.0 mg/kg/injection, schedule: Q01DX001 (ip), vehicle: distilled water + Tween-80) was 130 % of control [5 of 6 alive].

With `CC1=NN(c2ccc(S(=O)(=O)O)cc2)C(=O)C1`, under setting [4], the survivor count is recorded as 1 of 6.

In the case of `c1c2c(cc3c1OCO3)CNCC2`, the survivor count is on record as 2 of 6 (T/C endpoint: mean survival time, dose: 200.0 mg/kg/injection, schedule: Q01DX001 (ip), vehicle: saline) and 0 of 6 (T/C endpoint: mean survival time, dose: 400.0 mg/kg/injection, schedule: Q01DX001 (ip), vehicle: saline).

Take `CCC1CC(C)C(=O)NC1=O` (stereo not drawn): the survivor count runs as follows: (T/C endpoint: mean survival time, dose: 100.0 mg/kg/injection, schedule: Q04DX003 (ip), vehicle: saline) 4 of 6; (T/C endpoint: mean survival time, dose: 200.0 mg/kg/injection, schedule: Q04DX003 (ip), vehicle: saline) 0 of 6; (T/C endpoint: mean survival time, dose: 400.0 mg/kg/injection, schedule: Q04DX003 (ip), vehicle: saline) 0 of 6.

On to `CCCCCCCCCC(=O)N(C)C`, for which the survivor count under setting [5] is 2 of 6.

On to `COc1cccc2c1C(=O)c1c(O)c3c(c(O)c1C2=O)C[C@@](O)(/C(C)=N\O)C[C@@H]3OC1CC(N)C(O)C(C)O1` (stereo partly drawn), for which, under “T/C endpoint: mean survival time, dose: 12.5 mg/kg/injection, schedule: Q01DX009 (ip), vehicle: water”, the T/C was 126 % of control. For the same molecule, the survivor count (T/C endpoint: mean survival time, dose: 50.0 mg/kg/injection, schedule: Q01DX009 (ip), vehicle: water) is 4 of 6.

These data come from PubChem BioAssay AID256 (DTP/NCI, 2004).
